Measurements reported in the supplement of paper PMC3334620.
The full ranking holds about 33,000 sequences; the median of “E-score (-0.5 to 0.5)” is about -0.015, and the highest 2% start at about 0.3. This is one part of the list.

Each sequence was assayed against T1, Abf1 (UniProt P14164) (assay: PBM E-score (8-mer binding enrichment) (E-score (-0.5 to 0.5)); higher = stronger / more preferred TF binding). Settings: protein concentration: 200 nM; construct: GST-full length.
T1 sequence: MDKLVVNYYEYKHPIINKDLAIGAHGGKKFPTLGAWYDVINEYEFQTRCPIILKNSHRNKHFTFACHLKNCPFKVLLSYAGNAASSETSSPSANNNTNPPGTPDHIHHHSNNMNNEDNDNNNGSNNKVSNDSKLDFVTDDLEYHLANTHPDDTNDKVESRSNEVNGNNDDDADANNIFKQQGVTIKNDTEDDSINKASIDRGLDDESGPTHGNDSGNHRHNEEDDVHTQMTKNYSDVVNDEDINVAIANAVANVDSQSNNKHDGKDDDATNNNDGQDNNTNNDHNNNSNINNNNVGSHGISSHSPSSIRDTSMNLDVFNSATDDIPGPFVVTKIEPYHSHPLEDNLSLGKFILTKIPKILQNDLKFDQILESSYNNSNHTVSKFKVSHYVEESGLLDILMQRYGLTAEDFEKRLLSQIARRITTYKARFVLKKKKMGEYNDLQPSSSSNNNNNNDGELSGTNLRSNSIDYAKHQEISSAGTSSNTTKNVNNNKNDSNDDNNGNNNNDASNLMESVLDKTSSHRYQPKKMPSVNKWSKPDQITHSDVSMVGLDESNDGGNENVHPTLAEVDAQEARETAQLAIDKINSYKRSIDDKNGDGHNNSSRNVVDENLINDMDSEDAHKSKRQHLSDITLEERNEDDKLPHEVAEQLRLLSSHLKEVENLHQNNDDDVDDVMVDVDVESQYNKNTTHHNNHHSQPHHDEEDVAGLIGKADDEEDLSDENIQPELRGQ
Outline: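 PURExpress in vitro transcription/translation supplied GST-tagged yeast transcription factors, either full-length or DNA-binding domain. Applied at about 100-200 nM to universal all-10-mer Agilent arrays double-stranded by primer extension, the bound protein was detected with fluorescent anti-GST. E-scores, modified Wilcoxon-Mann-Whitney statistics, were given by the Universal PBM Analysis Suite to ungapped eight-base words pooled with their reverse complements after masliner normalisation.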

Sequence | PBM E-score
AGATAGAT | -0.144
ACCACAGG | -0.206
ATCCCGCC | -0.0962
GCAACAGA | 0.0303
AACCTCAT | 0.0609
AATGAACA | -0.0119
GTATACGA | 0.242
GGCACGCC | -0.283
CATTTTCC | 0.137
TTAAACAA | -0.0229
CATCCGGG | -0.161
CAAAAGGC | -0.00363
CGGGCCTA | -0.171
GACGAGCC | 0.142
GAACTTTA | -0.014
CATTGATC | 0.199
ATGTATAC | 0.0444
ACGACCCA | 0.0792
GCATGCTA | -0.0679
CGGCCACA | 0.0795
CCAAAGCC | -0.256
CCGTCTAG | 0.136
ACACAGTC | -0.0917
GTCTCTAA | 0.172

Reprinted from the listing (7 entries):
Sequence | PBM E-score
TTAAACAA | -0.0229
CATCCGGG | -0.161
CAAAAGGC | -0.00363
CGGGCCTA | -0.171
GACGAGCC | 0.142
GAACTTTA | -0.014
CATTGATC | 0.199

(list continues)

Sequence | PBM E-score
AACCGCAA | -0.0358
ACTACATA | 0.14
CTGATGCC | -0.0822
CTTTCTCC | -0.317
CTAATCAC | 0.251
GTTCCCGA | -0.0493
AAGGACTG | -0.0137
GCCCTAAC | -0.0553
CTCATGGC | -0.0558
TAGCTATA | 0.0132
ATGGAATC | 0.0484
ACGTGCGA | 0.026
CTCACCAA | -0.0657
ATCAAGAG | 0.00184
ATTTGTCC | 0.132
CAGCACCC | -0.122
GCTGGCAC | 0.193
ATTGGACC | -0.133
CACATATG | -0.19
ACAATCCT | -0.122
ATGTGTCA | 0.233
AACCCTGC | -0.0986
GATTTATA | 0.166
CTGGCTAC | -0.122

Sequence | PBM E-score
CGGGCTGC | -0.159
GTACCTAA | 0.123
ACCCGCCC | -0.143
AACTCTGG | -0.0426
AATAATCC | -0.0862
CGTAGCTA | 0.15
ACGTCTTG | 0.117
CTATGGAC | 0.0299
TATCCACA | 0.0114
ATTGCTGG | -0.181
AGTTTCCA | -0.0143
AGAGGCTA | -0.289
GTAGGCAA | -0.0899
GTTCCTCA | -0.146
AGCAATAG | -0.13
AACATACA | -0.0901
ACCGTGCG | 0.315
CGGCTTAA | 0.0585
GATCTACC | -0.00382
CCCCACAG | -0.0954
ACGTCGTG | 0.213
CATTCTAC | 0.0157
AGCATCGC | -0.281
GACTCCTA | -0.222

Sequence | PBM E-score
AGCGTATG | -0.154
CCCGGGTA | -0.0101
AAACGTTG | -0.155
AACGACTT | 0.198
CTTAGAAG | -0.115
CAATACTA | 0.0883
CAGTCATG | -0.0906
ATTTTTTG | 0.0407
GCCCAAAA | -0.114
CCGAACGG | -0.0461
CTCCACAA | -0.187
GGGTAGGA | -0.0723
CTAAAGGA | 0.00369
AACCCTCC | -0.261
ATAAGTCG | 0.00336
AGTGGCAA | -0.0491
CACGCTCA | 0.0694
AGGAGACT | -0.117
AACGTTGG | -0.0683
CACCAAGA | -0.0277
ATTGGTCC | 0.0312
ATGGCGGA | -0.245
